Record: PubChem BioAssay AID652272 (Drosophila RNAi Screening Center, 2013)

- Screen: 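Finding fly genes that regulate Hedgehog signal transduction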 (primary screen)
- System: Drosophila clone 8 (Cl8) cells
- Reagents: long dsRNA against Drosophila genes
- Measurement: 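Firefly light from a Hedgehog-responsive ptc promoter reporter and Renilla reference light, both read on a plate reader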
- Reading the numbers: firefly Hh reporter signal: higher = more ptc reporter light; Renilla reference signal: higher = more Renilla control light
- Hit rule: 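Called a hit if the two-replicate mean z-score lies below -2 or above +3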
- Calls: active = hit: reporter lowered or raised; inactive = not a hit
In all, the deposit lists about 21,000 reagents; below is a random part of those with a known target gene and a result. Of all reagents, 503 (2.4%) are marked active. 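Raw plate light values, not normalised; calls rest on replicate z-scores that were not deposited; hits include reporter decreases as well as increases.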 No sequences are given here. Not stated in the record: the amount of reagent, the time to read-out.

With prod (GeneID 37187) [DRSC07667], how do the results read?
firefly Hh reporter signal, replicate 1: 84400; firefly Hh reporter signal, replicate 2: 65974; Renilla reference signal, replicate 1: 3667; Renilla reference signal, replicate 2: 2818; Outcome: inactive

What is on record for Cyp18a1 (GeneID 32858) [DRSC20235]?
firefly Hh reporter signal, replicate 1: 69665; firefly Hh reporter signal, replicate 2: 2.79e5; Renilla reference signal, replicate 1: 1497; Renilla reference signal, replicate 2: 11334; Outcome: inactive

For Prp18 (GeneID 42285) [DRSC16802], how do the results read?
firefly Hh reporter signal, replicate 1: 82433; firefly Hh reporter signal, replicate 2: 35699; Renilla reference signal, replicate 1: 4057; Renilla reference signal, replicate 2: 2072; Outcome: inactive

With BigH1 (GeneID 41780) [DRSC15491], what does the deposit list?
firefly Hh reporter signal, replicate 1: 91769; firefly Hh reporter signal, replicate 2: 77620; Renilla reference signal, replicate 1: 3444; Renilla reference signal, replicate 2: 3372; Outcome: inactive

What did the screen give for EMC6 (GeneID 42992) [DRSC14386]?
firefly Hh reporter signal, replicate 1: 5.38e5; firefly Hh reporter signal, replicate 2: 84231; Renilla reference signal, replicate 1: 26616; Renilla reference signal, replicate 2: 2528; Outcome: inactive

What did the screen give for CG32148 (GeneID 251924) [DRSC09338]?
firefly Hh reporter signal, replicate 1: 2.22e5; Renilla reference signal, replicate 1: 5660; Outcome: inactive

With CG32795 (GeneID 31270) [DRSC18609], how do the results read?
firefly Hh reporter signal, replicate 1: 97179; firefly Hh reporter signal, replicate 2: 2.82e5; Renilla reference signal, replicate 1: 2901; Renilla reference signal, replicate 2: 10697; Outcome: inactive

With CG32795 (GeneID 31270) [DRSC18610], what was measured?
firefly Hh reporter signal, replicate 1: 1.04e5; firefly Hh reporter signal, replicate 2: 2.71e5; Renilla reference signal, replicate 1: 3254; Renilla reference signal, replicate 2: 11003; Outcome: inactive

For Uros1 (GeneID 31817) [DRSC18191], what was measured?
firefly Hh reporter signal, replicate 1: 60304; firefly Hh reporter signal, replicate 2: 62368; Renilla reference signal, replicate 1: 1799; Renilla reference signal, replicate 2: 1600; Outcome: inactive

Ordered by “Renilla reference signal, replicate 1” (ascending): some entries from above
BigH1 (GeneID 41780) [DRSC15491] | firefly Hh reporter signal, replicate 1: 91769; firefly Hh reporter signal, replicate 2: 77620; Renilla reference signal, replicate 1: 3444; Renilla reference signal, replicate 2: 3372; Outcome: inactive
CG32148 (GeneID 251924) [DRSC09338] | firefly Hh reporter signal, replicate 1: 2.22e5; Renilla reference signal, replicate 1: 5660; Outcome: inactive
EMC6 (GeneID 42992) [DRSC14386] | firefly Hh reporter signal, replicate 1: 5.38e5; firefly Hh reporter signal, replicate 2: 84231; Renilla reference signal, replicate 1: 26616; Renilla reference signal, replicate 2: 2528; Outcome: inactive

Further entries:
With CG17239 (GeneID 59224) [DRSC00492], what does the deposit list?
firefly Hh reporter signal, replicate 1: 1.23e5; firefly Hh reporter signal, replicate 2: 94024; Renilla reference signal, replicate 1: 3000; Renilla reference signal, replicate 2: 2347; Outcome: inactive

With CG13137 (GeneID 34349) [DRSC02234], what was measured?
firefly Hh reporter signal, replicate 1: 91626; firefly Hh reporter signal, replicate 2: 52731; Renilla reference signal, replicate 1: 2537; Renilla reference signal, replicate 2: 5208; Outcome: inactive

What is on record for Atg9 (GeneID 36821) [DRSC06848]?
firefly Hh reporter signal, replicate 1: 92653; firefly Hh reporter signal, replicate 2: 68771; Renilla reference signal, replicate 1: 3722; Renilla reference signal, replicate 2: 2885; Outcome: inactive

What is on record for CG31789 (GeneID 318943) [DRSC01645]?
firefly Hh reporter signal, replicate 1: 84114; firefly Hh reporter signal, replicate 2: 2.72e5; Renilla reference signal, replicate 1: 2501; Renilla reference signal, replicate 2: 10437; Outcome: inactive

Which result is listed for CG30002 (GeneID 246384) [DRSC05182]?
firefly Hh reporter signal, replicate 1: 88048; firefly Hh reporter signal, replicate 2: 2.38e5; Renilla reference signal, replicate 1: 2116; Renilla reference signal, replicate 2: 9858; Outcome: inactive

With CG9205 (GeneID 38113) [DRSC08642], what does the deposit list?
firefly Hh reporter signal, replicate 1: 1.09e5; firefly Hh reporter signal, replicate 2: 67473; Renilla reference signal, replicate 1: 4589; Renilla reference signal, replicate 2: 2848; Outcome: inactive

What is on record for TER94 (GeneID 36040) [DRSC07560]?
firefly Hh reporter signal, replicate 1: 31244; firefly Hh reporter signal, replicate 2: 30179; Renilla reference signal, replicate 1: 2106; Renilla reference signal, replicate 2: 2006; Outcome: inactive

What did the screen give for CG2839 (GeneID 33244) [DRSC00544]?
firefly Hh reporter signal, replicate 1: 1.31e5; firefly Hh reporter signal, replicate 2: 98916; Renilla reference signal, replicate 1: 3392; Renilla reference signal, replicate 2: 2580; Outcome: inactive

With TBC1D23 (GeneID 33289) [DRSC00657], what was measured?
firefly Hh reporter signal, replicate 1: 1.25e5; firefly Hh reporter signal, replicate 2: 79594; Renilla reference signal, replicate 1: 3249; Renilla reference signal, replicate 2: 2096; Outcome: inactive

With Polr2G (GeneID 261631) [DRSC16068], what does the deposit list?
firefly Hh reporter signal, replicate 1: 1.31e5; firefly Hh reporter signal, replicate 2: 87488; Renilla reference signal, replicate 1: 4193; Renilla reference signal, replicate 2: 2880; Outcome: inactive

For hebe (GeneID 36011) [DRSC05192], how do the results read?
firefly Hh reporter signal, replicate 1: 1.50e5; firefly Hh reporter signal, replicate 2: 3.13e5; Renilla reference signal, replicate 1: 3632; Renilla reference signal, replicate 2: 13296; Outcome: inactive

Which result is listed for hebe (GeneID 36011) [DRSC06605]?
firefly Hh reporter signal, replicate 1: 1.22e5; firefly Hh reporter signal, replicate 2: 6.61e5; firefly Hh reporter signal, replicate 3: 1.08e5; Renilla reference signal, replicate 1: 5463; Renilla reference signal, replicate 2: 38833; Outcome: inactive
